Test results taken from publication doi:10.1101/2024.03.04.583305.

By UniProt entry, the sequences of proteins in these tests, tags left out. Residues count along the entry.
UniProt P01106, 365-454 E425T/E432I/R438Q/R439N: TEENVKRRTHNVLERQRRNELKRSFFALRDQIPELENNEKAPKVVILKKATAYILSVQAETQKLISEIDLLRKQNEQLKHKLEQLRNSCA

Target: Omomyc E425T,E432I,R438Q,R439N (UniProt P01106)
Assay: EMSA
Conditions: 2 mM Mg2+

**Q.** Which Kd does the source give for “ACCCCACCACGTGGTGCCT (double strand) [E-Box DNA]” here?
**A.** 0.025 µM

For at least one entry, the source does not settle the construct or the ends of the probe.
